# Reference: publication PMC11212238
# By UniProt entry, the sequences of proteins in these tests, tags left out.
# UniProt P62491: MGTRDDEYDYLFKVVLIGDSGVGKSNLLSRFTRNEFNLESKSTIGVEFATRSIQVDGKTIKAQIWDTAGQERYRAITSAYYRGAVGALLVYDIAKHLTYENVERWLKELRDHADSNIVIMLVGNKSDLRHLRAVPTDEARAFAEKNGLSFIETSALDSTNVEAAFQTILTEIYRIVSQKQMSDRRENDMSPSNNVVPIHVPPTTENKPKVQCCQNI
# UniProt P54652: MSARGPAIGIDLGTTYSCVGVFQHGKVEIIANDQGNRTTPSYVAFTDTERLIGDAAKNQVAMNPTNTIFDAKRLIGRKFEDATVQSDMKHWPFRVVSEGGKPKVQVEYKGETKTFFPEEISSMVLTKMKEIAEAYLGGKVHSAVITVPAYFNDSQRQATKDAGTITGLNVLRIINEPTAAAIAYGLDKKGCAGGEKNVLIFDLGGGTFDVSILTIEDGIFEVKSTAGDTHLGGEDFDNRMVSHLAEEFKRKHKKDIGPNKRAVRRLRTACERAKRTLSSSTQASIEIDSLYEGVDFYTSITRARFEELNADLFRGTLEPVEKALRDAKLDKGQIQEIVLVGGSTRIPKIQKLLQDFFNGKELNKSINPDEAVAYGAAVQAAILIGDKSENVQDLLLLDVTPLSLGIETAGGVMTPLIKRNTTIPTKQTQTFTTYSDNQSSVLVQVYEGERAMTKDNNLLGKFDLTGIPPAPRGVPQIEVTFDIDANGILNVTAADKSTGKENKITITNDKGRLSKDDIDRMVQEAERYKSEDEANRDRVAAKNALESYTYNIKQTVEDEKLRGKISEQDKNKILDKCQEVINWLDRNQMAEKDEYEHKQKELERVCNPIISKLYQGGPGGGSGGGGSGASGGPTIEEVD
# UniProt P11142: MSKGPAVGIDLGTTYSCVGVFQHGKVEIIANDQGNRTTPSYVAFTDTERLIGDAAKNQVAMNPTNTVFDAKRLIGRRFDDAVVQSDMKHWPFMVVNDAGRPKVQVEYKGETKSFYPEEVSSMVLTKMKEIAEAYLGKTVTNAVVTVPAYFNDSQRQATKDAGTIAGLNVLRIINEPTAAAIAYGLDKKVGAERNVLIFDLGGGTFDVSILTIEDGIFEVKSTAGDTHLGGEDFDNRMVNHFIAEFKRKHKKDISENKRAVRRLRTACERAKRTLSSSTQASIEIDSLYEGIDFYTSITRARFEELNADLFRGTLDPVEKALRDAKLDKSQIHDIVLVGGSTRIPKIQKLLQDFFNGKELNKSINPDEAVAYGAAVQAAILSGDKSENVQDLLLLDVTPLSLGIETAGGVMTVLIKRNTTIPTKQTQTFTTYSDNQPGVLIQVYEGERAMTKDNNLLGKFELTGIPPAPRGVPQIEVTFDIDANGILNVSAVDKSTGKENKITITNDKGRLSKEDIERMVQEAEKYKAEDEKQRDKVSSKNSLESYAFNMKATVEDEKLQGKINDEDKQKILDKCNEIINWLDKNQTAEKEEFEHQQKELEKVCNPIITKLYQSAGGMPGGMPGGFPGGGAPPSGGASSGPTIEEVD
# Biological target: RAB11A (human (endogenous in SH-SY5Y)) (UniProt P62491)
# Experiment: affinity purification with mass spectrometry; Co-IP with anti-RAB11A from lysates of EV-A71 S41-infected (MOI 0.1, 24 h.p.i.) and uninfected SH-SY5Y cells; elution in Laemmli buffer at 70 °C; SDS-PAGE, in-gel trypsin digestion, LC-MS/MS (Q Exactive), Mascot; IgG isotype control subtracted
row,Molecule,binding
1,HSPA2 (from UniProt P54652 1-639),binds
2,HSPA8 (from UniProt P11142 1-646),binds
3,"TRAP1 (protein, UniProt Q12931 60-704) STQTAEDKEEPLHSIISSTESVQGSTSKHEFQAETKKLLDIVARSLYSEKEVFIRELISNASDALEKLRHKLVSDGQALPEMEIHLQTNAEKGTITIQDTGIGMTQEELVSNLGTIARSGSKAFLDALQNQAEASSKIIGQFGVGFYSAFMVADRVEVYSRSAAPGSLGYQWLSDGSGVFEIAEASGVRTGTKIIIHLKSDCKEFSSEARVRDVVTKYSNFVSFPLYLNGRRMNTLQAIWMMDPKDVREWQHEEFYRYVAQAHDKPRYTLHYKTDAPLNIRSIFYVPDMKPSMFDVSRELGSSVALYSRKVLIQTKATDILPKWLRFIRGVVDSEDIPLNLSRELLQESALIRKLRDVLQQRLIKFFIDQSKKDAEKYAKFFEDYGLFMREGIVTATEQEVKEDIAKLLRYESSALPSGQLTSLSEYASRMRAGTRNIYYLCAPNRHLAEHSPYYEAMKKKDTEVLFCFEQFDELTLLHLREFDKKKLISVETDIVVDHYKEEKFEDRSPAAECLSEKETEELMAWMRNVLGSRVTNVKVTLRLDTHPAMVTVLEMGAARHFLRMQQLAKTQEERAQLLQPTLEINPRHALIKKLNQLRASEPGLAQLLVDQIYENAMIAAGLVDDPRAMVGRLNELLVKALERH",binds

# Results are given in words; binding and its absence hold for the method and conditions named. Binding seen in cells or lysates may run through a third protein. Here binding means that the protein was enriched with, or labelled near, the bait; the list need not be complete.
